# Test results from PubChem BioAssay AID2685 (National Center for Advancing Translational Sciences (NCATS), 2010).
# This is one part of the list. These are further read-outs of the screen, such as a control signal, another cell line or another target. No call is given for them. The list favours compounds with an active or inconclusive main result. Potencies come from curve fits of mixed quality, noted in brackets.
# Assay: qHTS Assay for Lipid Storage Modulators in Drosophila S3 Cells;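 as to cell number change: cells counted by Cell Tracker Red CMTPX staining in the red channel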
# Conditions: BODIPY lipid droplet fluorescence, 18-24 h; for cell number change: measured here: cell count max response, cells fed with added oleic acid
# In short: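 Drosophila S3 cells got compounds at several concentrations plus oleic acid (400 uM solution). Laser-scanning cytometry with 488 nm excitation read lipid droplets at 500-530 nm and cells at 575-640 nm. Percent activity was relative to 20 uM Triacsin C.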
# [1] = measured here: lipid fluorescence (Fed channel) AC50, cells fed with added oleic acid
# [2] = measured here: cell number channel AC50, cells fed with added oleic acid
SMILES,cell number change,AC50 [1],AC50 [2]
CCN(CC)CCN(C(=O)Cn1nnc(-c2ccc(C)o2)n1)C(C(=O)NC1CCCC1)c1ccc(F)cc1 (stereo unspecified),24.6%,,
Cc1ccc(Cn2cc(S(=O)(=O)c3ccc(C(C)C)cc3)c(=O)c3cc4c(cc32)OCO4)cc1,16.5%,"32.6 µM [rising, partial curve, poor fit]",
Cc1cnc(-c2nnc(N(C)C(=O)C3CCOC3)s2)cn1 (stereo unspecified),,"0.82 µM [falling, full curve, poor fit]",
CNc1nc(Sc2ccccc2)cc(C(F)(F)F)n1,-32.7%,"29.1 µM [falling, single point]","29.1 µM [falling, single point]"
CC1(C)CC(=O)C(C=NCC2CCN(C(=O)Nc3ccc(Cl)c(Cl)c3)CC2)=C(O)C1,18.8%,,
Cc1n[nH]c(=O)c2c(NC(=O)CSc3ccccc3Cl)oc(C)c12,2.53%,,
COc1cc2ccccc2cc1C(=O)Nc1ccc(O)cc1,-47.8%,"29.1 µM [falling, single point]","18.4 µM [falling, single point]"
O=C(CCCc1nc2ccccc2s1)NCc1cccnc1,61.7%,,"5.17 µM [rising, partial curve]"
CCN(CC)c1ccc(NC(=O)COc2ccc(N(C)S(=O)(=O)c3cccs3)cc2)cc1,,"3.66 µM [rising, single point]",
O=C(CN1CCc2ccccc21)NN1CC(=O)N(c2ccc(Cl)cc2)CC1=O,1.71%,"0.103 µM [falling, full curve, poor fit]",
O=C1c2ccsc2SCCN1Cc1ccc(Cl)cc1,18.7%,"1.3 µM [falling, full curve]",
O=C1CCN(Cc2ccccc2)CCN1CCSc1ccccc1,21.7%,"10.3 µM [rising, partial curve]",
COc1ccc(CCCC(=O)N/N=C/c2ccccc2OC)cc1,5.6%,,"0.651 µM [falling, single point]"
CCN1CCN(c2ccc([N+](=O)[O-])cc2S(=O)(=O)N2CCOCC2)CC1,-7.71%,"0.259 µM [falling, full curve]","0.731 µM [falling, partial curve]"
CCCNC(=O)c1ccccc1NC(=O)Cc1ccc(OC)c(S(=O)(=O)N2CCOCC2)c1,15.5%,,
CO/N=C/CC(=O)c1cnc(-c2ccc(Cl)cc2)s1,5.56%,"2.06 µM [rising, partial curve, poor fit]",
O=C(Nc1nc(-c2ccc(-c3ccccc3)cc2)cs1)C1=COCCO1,-13.6%,"11.6 µM [falling, partial curve, poor fit]",
CC(=O)c1c(C)[nH]c(C(=O)NCCc2ccc(Cl)cc2)c1C,,"6.51 µM [rising, single point]","0.103 µM [rising, single point]"
O=C(NCCO)C(=O)Nc1cc2c3c(c1)CCC(=O)N3CCC2,-58.1%,"6.51 µM [falling, partial curve]","16.4 µM [falling, single point]"
CC/C(C)=N\Nc1nc(-c2cc3cc(OC)ccc3oc2=O)cs1,1.94%,,"2.06 µM [rising, partial curve, poor fit]"
CC(C)NC(=O)C1CCN(C2CCN(C(=O)c3cc4c(s3)CCCCC4)CC2)CC1,-44.6%,"5.8 µM [falling, full curve]","5.17 µM [falling, full curve, poor fit]"

SMILES,cell number change,AC50 [1],AC50 [2]
CC(C)CN(CCNC(=O)CN1C(=O)COc2ccc(S(=O)(=O)N3CCOCC3)cc21)CC(C)C,-21.3%,,
CC(C)(C)C(=O)Nc1ccccc1C(=O)NCc1cccnc1,13.5%,"0.00651 µM [rising, full curve, poor fit]",
Cc1ccc(C)c(N(CC(=O)NCCSCc2ccco2)S(C)(=O)=O)c1,-3.74%,,
COC(=O)c1cc(S(=O)(=O)N2CCN(c3cccc(C)c3)C(C)C2)c[nH]1 (stereo unspecified),24.8%,"0.731 µM [rising, single point]",
COC(=O)Nc1ccc(S(=O)(=O)n2cnc3ccccc32)cc1,2.68%,,
Cc1ccc(N=C(NOCc2ccc(Cl)cc2Cl)c2nonc2N)c(C)c1,4.16%,"14.6 µM [falling, partial curve]","3.66 µM [rising, single point]"
N#C/C(=C\c1cccc(OC(=O)c2cccs2)c1)C(N)=O,-64.2%,"29.1 µM [falling, single point]","20.6 µM [falling, single point]"
COCCOC1CCN(C(=O)C2CCC(=O)N(CCc3ccc(OC)cc3)C2)CC1 (stereo unspecified),,"1.46 µM [falling, partial curve, poor fit]",
CCOC(=O)c1cc(NC(=O)c2ccoc2C)cc(C(=O)OCC)c1,,"0.731 µM [rising, full curve]","0.461 µM [rising, full curve]"
O=C(Nc1ccc(N2CCCCC2)c(Cl)c1)c1cccnc1,-21.5%,"32.6 µM [falling, single point]",
COc1ccc(CN2CC(=O)N(c3ccc(C)c(C)c3)C2=S)cc1OC,27%,"9.2 µM [rising, partial curve, poor fit]",
O=C(/C=C/c1cccs1)Nc1ccc(N2CCOCC2)c(S(=O)(=O)Nc2ccccc2Cl)c1,7.81%,"18.4 µM [rising, single point]",
CCC(C)(C)C1CCc2[nH]nc(C(=O)O)c2C1 (stereo unspecified),-39%,"0.58 µM [falling, full curve, poor fit]","25.9 µM [falling, single point]"
CCS(=O)(=O)N1CCN(S(=O)(=O)c2ccc3c(c2)OCCO3)CC1,2.99%,"6.51 µM [rising, single point]",
CCCCC(=O)Nc1c(C)cc(C)cc1Cl,22.4%,,
O=C(O)CSc1nnc(-c2ccncc2)n1Cc1ccccc1,31.8%,"6.51 µM [rising, partial curve, poor fit]","10.3 µM [rising, partial curve, poor fit]"
CC(=O)N1c2ccc(S(=O)(=O)N3CCCCC3)cc2CC1C(=O)NCc1ccccc1C (stereo unspecified),-2.83%,"5.17 µM [rising, single point]",
CC(C)(C)C(=O)N=C1SC2CS(=O)(=O)CC2N1c1ccc2c(c1)OCO2 (stereo unspecified),,"4.11 µM [falling, partial curve]",
COc1ccc(N(CC(=O)Nc2ccccc2C(=O)N2CCOCC2)S(=O)(=O)c2ccc(F)cc2)cc1,,"16.4 µM [falling, single point]",
COc1cc(CN2CCN(Cc3ccc(C(F)(F)F)cc3)CC2)cc(OC)c1OC,-2.55%,,
O=Nc1c2ccc[nH]c-2c2ccc([N+](=O)[O-])cc12,4.81%,,

# A run of entries from further up, for reference:
SMILES,cell number change,AC50 [1],AC50 [2]
Cc1ccc(C)c(N(CC(=O)NCCSCc2ccco2)S(C)(=O)=O)c1,-3.74%,,
COC(=O)c1cc(S(=O)(=O)N2CCN(c3cccc(C)c3)C(C)C2)c[nH]1 (stereo unspecified),24.8%,"0.731 µM [rising, single point]",
COC(=O)Nc1ccc(S(=O)(=O)n2cnc3ccccc32)cc1,2.68%,,
Cc1ccc(N=C(NOCc2ccc(Cl)cc2Cl)c2nonc2N)c(C)c1,4.16%,"14.6 µM [falling, partial curve]","3.66 µM [rising, single point]"
N#C/C(=C\c1cccc(OC(=O)c2cccs2)c1)C(N)=O,-64.2%,"29.1 µM [falling, single point]","20.6 µM [falling, single point]"
COCCOC1CCN(C(=O)C2CCC(=O)N(CCc3ccc(OC)cc3)C2)CC1 (stereo unspecified),,"1.46 µM [falling, partial curve, poor fit]",
CCOC(=O)c1cc(NC(=O)c2ccoc2C)cc(C(=O)OCC)c1,,"0.731 µM [rising, full curve]","0.461 µM [rising, full curve]"
O=C(Nc1ccc(N2CCCCC2)c(Cl)c1)c1cccnc1,-21.5%,"32.6 µM [falling, single point]",
COc1ccc(CN2CC(=O)N(c3ccc(C)c(C)c3)C2=S)cc1OC,27%,"9.2 µM [rising, partial curve, poor fit]",
O=C(/C=C/c1cccs1)Nc1ccc(N2CCOCC2)c(S(=O)(=O)Nc2ccccc2Cl)c1,7.81%,"18.4 µM [rising, single point]",
CCC(C)(C)C1CCc2[nH]nc(C(=O)O)c2C1 (stereo unspecified),-39%,"0.58 µM [falling, full curve, poor fit]","25.9 µM [falling, single point]"
CCS(=O)(=O)N1CCN(S(=O)(=O)c2ccc3c(c2)OCCO3)CC1,2.99%,"6.51 µM [rising, single point]",
CCCCC(=O)Nc1c(C)cc(C)cc1Cl,22.4%,,
O=C(O)CSc1nnc(-c2ccncc2)n1Cc1ccccc1,31.8%,"6.51 µM [rising, partial curve, poor fit]","10.3 µM [rising, partial curve, poor fit]"
CC(=O)N1c2ccc(S(=O)(=O)N3CCCCC3)cc2CC1C(=O)NCc1ccccc1C (stereo unspecified),-2.83%,"5.17 µM [rising, single point]",
CC(C)(C)C(=O)N=C1SC2CS(=O)(=O)CC2N1c1ccc2c(c1)OCO2 (stereo unspecified),,"4.11 µM [falling, partial curve]",
COc1ccc(N(CC(=O)Nc2ccccc2C(=O)N2CCOCC2)S(=O)(=O)c2ccc(F)cc2)cc1,,"16.4 µM [falling, single point]",
COc1cc(CN2CCN(Cc3ccc(C(F)(F)F)cc3)CC2)cc(OC)c1OC,-2.55%,,
O=Nc1c2ccc[nH]c-2c2ccc([N+](=O)[O-])cc12,4.81%,,

# Remaining list, next part

SMILES,cell number change,AC50 [1],AC50 [2]
CCn1c2ccccc2c2nnc(SCC(=O)NC3CCS(=O)(=O)C3)nc21 (stereo unspecified),,"2.31 µM [rising, partial curve]",
O=C1NC(=O)C2(CCC(C(=O)O)C2)N1 (stereo unspecified),31.1%,"29.1 µM [rising, single point]","29.1 µM [rising, single point]"
Cc1ccc(S(=O)(=O)NCC(C)n2nc(C)nc2C)cc1 (stereo unspecified),2.99%,"2.59 µM [rising, full curve]",
CC(C)c1ccc(N2C(=O)C3C4C=CC(CC4)C3C2=O)cc1 (stereo unspecified),33.4%,,
O=C(/C=C/c1ccccc1[N+](=O)[O-])NC1CCCC1,-46%,,
COc1cccc(CC(=O)NC2CCCN(Cc3ccccc3F)C2)c1 (stereo unspecified),5.69%,,
Cn1cc(/C=C/C(=O)c2ccccc2)c2ccccc21,,"2.59 µM [rising, partial curve]",
O=C(c1cc(-c2ccco2)on1)N1CCN(C(c2ccccc2)c2ccccc2)CC1,-6.8%,"14.6 µM [falling, single point]",
CC(=O)c1ccc(N2CCN(C(=O)c3cn(Cc4ccccc4)nc3-c3cccnc3)CC2)c(F)c1,14.5%,,
COc1cccc(CN(C)C(=O)CCN(c2ccccc2)S(=O)(=O)c2ccc(C)cc2)c1OC,-20.8%,"20.6 µM [falling, single point]",
Cn1c2ccccc2n2c(=O)c(=O)n(CC(=O)c3ccc(F)cc3)nc12,-0.227%,"2.91 µM [rising, partial curve, poor fit]",
OCCNc1cc(-n2nc(-c3ccccc3)cc2-c2ccccc2)ncn1,-20.7%,"6.51 µM [falling, single point]",
COc1ccc(NC(=O)CN(C)C(=O)CCC2CCCC2)cc1,1.62%,"29.1 µM [rising, single point]",
CC(C)CCOC(=O)C1C(c2ccccc2)C(C(=O)O)C1c1ccccc1 (stereo unspecified),9.37%,,
O=C(CSc1nc2ccccc2n1CC(=O)N1CCOCC1)N1CCCC1,-21.4%,"23.1 µM [falling, single point]",
CC(C)(C)N1C(=O)Cc2c1nc(N)c1c(N)nc(N3CCCCC3CO)c(C#N)c21 (stereo unspecified),17.5%,,
Cc1nc2ccccn2c1C(=O)CSc1cccc(Cl)c1,-29.4%,,
CN(c1ccccc1)S(=O)(=O)c1cccc(NC(=O)COC(=O)C2CCCCC2)c1,17.4%,,
CC(C)C(NC(=O)c1ccc(C(C)(C)C)cc1)C(=O)NCc1ccccn1 (stereo unspecified),-20.2%,"0.116 µM [falling, full curve, poor fit]","0.146 µM [falling, full curve, poor fit]"
CCOC(=O)c1c(C)[nH]c(C)c1C(=O)COC(=O)c1ccc([N+](=O)[O-])s1,-35.2%,"11.6 µM [falling, partial curve]","13 µM [falling, single point]"
